In PMC8333275 one finds binding data, which are given here for 1 molecule.

Results are given in words; binding and its absence hold for the method and conditions named. In cells and extracts the contact can be indirect. Some binding calls cover weakened binding; strength is not graded here. Sequences can lack the tags named with a protein.

In this assay the target is T1, Myc-tagged GRXCR2 (UniProt Q3TYR5).
T1 sequence: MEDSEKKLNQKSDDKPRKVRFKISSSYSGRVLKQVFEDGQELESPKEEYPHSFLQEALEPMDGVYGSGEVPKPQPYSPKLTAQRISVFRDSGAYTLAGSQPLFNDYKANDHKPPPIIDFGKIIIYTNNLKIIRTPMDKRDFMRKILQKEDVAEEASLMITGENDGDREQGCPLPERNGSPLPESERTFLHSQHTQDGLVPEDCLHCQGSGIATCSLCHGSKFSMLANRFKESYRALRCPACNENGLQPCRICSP
As to the kind of experiment: co-IP; extracts of HEK293 cells transfected with GRXCR1-GFP and Myc-GRXCR2; immunoprecipitation with Myc antibody, western blot. A general note: In western blotting, separated proteins are transferred to a membrane and probed.

B1: GFP-tagged GRXCR1 (protein, UniProt Q50H32 1-290)
chain: MLRRETKPESDRPRKVRFRIASSHSGRVLKEVYEDGQAPGSLDSECASICAIDGLSDSEGQQNGHIGSEDNEQEKDQDNLLVLARTASEKAFGTRRVNILSKNGTVRGVKYKVSAGQALFNNLTKVLQQPSADLEFDRVVIYTTCLRVVRTTFERCELVRKIFQNHRVKFEEKNIALNGDYGKELDERCRRVSEAPSLPVVFIDGHYLGGAEKILSMNESGELQDLLTKIERVQHPHECPSCGGFGFLPCSVCHGSKMSVFRNCFTDAFKALKCTACNENGLQRCKNCTC
Turning to B1, the binding entry was “binds”.
